Results: patent US20190062445A1
Results are given in words; binding and its absence hold for the method and conditions named. Some results given as binding are weak or reduced against the parent protein; the word gives no strength.

By UniProt entry, the sequences of proteins in these tests, tags left out. Where a name states a change or a piece, a line headed by the entry shows the natural chain unless it says otherwise. Residues count along the entry.
UniProt A9YYE7, residues 24-254: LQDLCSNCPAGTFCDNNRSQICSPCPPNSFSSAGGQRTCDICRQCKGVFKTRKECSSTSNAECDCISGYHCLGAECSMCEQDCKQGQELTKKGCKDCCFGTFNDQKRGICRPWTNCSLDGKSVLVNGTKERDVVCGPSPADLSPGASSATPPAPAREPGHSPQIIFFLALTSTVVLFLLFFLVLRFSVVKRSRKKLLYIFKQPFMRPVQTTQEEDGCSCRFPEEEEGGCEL
UniProt Q07011, residues 24-255: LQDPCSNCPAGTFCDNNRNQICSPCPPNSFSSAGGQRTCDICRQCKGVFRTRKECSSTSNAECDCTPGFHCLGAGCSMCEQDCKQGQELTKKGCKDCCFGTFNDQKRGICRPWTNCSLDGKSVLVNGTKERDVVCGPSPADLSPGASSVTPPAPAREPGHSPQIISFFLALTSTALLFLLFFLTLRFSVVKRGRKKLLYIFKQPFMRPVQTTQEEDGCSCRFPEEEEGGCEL
UniProt P41273: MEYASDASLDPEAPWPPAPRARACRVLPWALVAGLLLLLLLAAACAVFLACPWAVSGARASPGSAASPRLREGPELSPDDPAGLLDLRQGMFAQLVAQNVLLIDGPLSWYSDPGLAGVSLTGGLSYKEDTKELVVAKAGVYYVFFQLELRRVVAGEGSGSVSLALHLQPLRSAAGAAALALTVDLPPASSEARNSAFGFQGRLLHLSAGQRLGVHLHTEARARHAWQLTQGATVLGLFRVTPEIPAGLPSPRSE

Experiments:
[1] = target: cynomolgus monkey CD137 expressed on PBMC (cynomolgus monkey) (UniProt A9YYE7); experiment: flow cytometry, PMA-ionomycin stimulated cynomolgus PBMC, detected with anti-mouse CD8
[2] = target: cynomolgus monkey CD137 expressed on PBMC (cynomolgus monkey) (UniProt A9YYE7); experiment: Flow cytometry on PMA-ionomycin stimulated cynomolgus monkey PBMC, detection with PE anti-mouse CD8, % positive cells
[3] = target: human CD137 (4-1BB) expressed on cells (human) (UniProt Q07011); experiment: Flow cytometry on PMA-ionomycin stimulated human CEM cells, detection with PE anti-mouse CD8, % positive cells
[4] = target: human CD137 (4-1BB) expressed on cells (human) (UniProt Q07011); experiment: flow cytometry, PMA-ionomycin stimulated CEM cells, detected with anti-mouse CD8

Measured: binding

Human CD137L-CD8 fusion protein (from UniProt P41273 50-254; P01731 28-196) (ligand)
binds: all assays above
